Source: PubChem BioAssay AID330 (DTP/NCI, 2004)
The list does not hold the whole screen: it is rich in T/C values a quarter to a half above the control, in often repeated tests (any T/C) and in doses without a T/C. Other doses and runs of a compound stand elsewhere. T/C: endpoint of the treated group in % of that of the vehicle group. Some entries give survivors of the animals treated and no T/C: the source files T/C as zero there, which appears to mark a toxic dose or a test without result, not a measured value. Some doses without a T/C left all or most animals alive at the check, yet need not have been tolerated: the source hardly ever lists a survival T/C far under the control, and the zero likely stands for such cases as well. Survivors were counted at the toxicity check, usually on the fifth day, unless a day is given; later deaths do not show. Schedule codes are those of the source, read here as Q, the interval in days (D) or hours (H), X, the number of doses. Where survival is the endpoint, this PubChem deposit counts one and a half times the control or more as active, and values a quarter to a half above the control carry no call in these data; other NCI protocols may use other cut-offs. Some T/C values carry the count of animals alive at the toxicity check (mostly the fifth day); where none is given, no animal had died by that day.

Test system: P388 leukemia ip, CD2F1 mice, survival T/C
Assay: NCI In Vivo Anticancer Drug Screen. Data for tumor model P388 Leukemia (intraperitoneal) in CD2F1 (CDF1) mice
Details: T/C endpoint: median survival time, higher T/C = longer survival
[1] = dose: 100.0 mg/kg/injection, schedule: Q01DX005 (ip), vehicle: saline with Tween-80
[2] = dose: 100.0 mg/kg/injection, schedule: Q01DX009 (ip), vehicle: saline
[3] = dose: 200.0 mg/kg/injection, schedule: Q01DX009 (ip), vehicle: saline
[4] = dose: 400.0 mg/kg/injection, schedule: Q01DX009 (ip), vehicle: saline with Tween-80

SMILES: C[n+]1c2ccccc2cc2[nH]c3ccccc3c21
- survivor count (dose: 12.5 mg/kg/injection, schedule: Q01DX005 (ip), vehicle: Klucel + Tween-80): 6 of 6
- survivor count (dose: 25.0 mg/kg/injection, schedule: Q01DX005 (ip), vehicle: Klucel + Tween-80): 2 of 6
- survivor count (dose: 50.0 mg/kg/injection, schedule: Q01DX005 (ip), vehicle: Klucel + Tween-80): 0 of 6
- survivor count (dose: 100.0 mg/kg/injection, schedule: Q01DX005 (ip), vehicle: Klucel + Tween-80): 0 of 6
- survivor count (dose: 200.0 mg/kg/injection, schedule: Q01DX005 (ip), vehicle: Klucel + Tween-80): 0 of 6

SMILES: C/C(N=NC(=S)N1CCSCC1)=C1\C=CC=CN1O
- survivor count [1]: 3 of 6

SMILES: CCCCCCCCCCCCC[N+]1(CC)CCCCC1
- survivor count (dose: 3.12 mg/kg/injection, schedule: Q01DX009 (ip), vehicle: saline): 5 of 6
- survivor count (dose: 6.25 mg/kg/injection, schedule: Q01DX009 (ip), vehicle: saline): 5 of 6
- survivor count (dose: 12.5 mg/kg/injection, schedule: Q01DX009 (ip), vehicle: saline): 2 of 6
- survivor count (dose: 50.0 mg/kg/injection, schedule: Q01DX009 (ip), vehicle: saline): 0 of 6
- survivor count [2]: 0 of 6
- survivor count [3]: 0 of 6

SMILES: CC(C)=CCCc1ccc2c(c1)C(=O)c1cc3c(cc1C2=O)OCO3
- survivor count (dose: 30.0 mg/kg/injection, schedule: Q01DX005 (ip), vehicle: saline with Tween-80): 6 of 6
- survivor count (dose: 60.0 mg/kg/injection, schedule: Q01DX005 (ip), vehicle: saline with Tween-80): 6 of 6
- survivor count (dose: 120.0 mg/kg/injection, schedule: Q01DX005 (ip), vehicle: saline with Tween-80): 6 of 6
- survivor count (dose: 240.0 mg/kg/injection, schedule: Q01DX005 (ip), vehicle: saline with Tween-80): 6 of 6

SMILES: Cc1nc([N+](=O)[O-])c(Sc2nncc(-c3ccccc3)n2)n1C
- survivor count (dose: 200.0 mg/kg/injection, schedule: Q01DX005 (ip), vehicle: Klucel (hydroxypropylcellulose) (HPC)): 6 of 6

SMILES: O=C1CCCCCCCNC(=O)CCCCCCC(=O)NCCCCCCCC(=O)NCCCCCCCCN1
- survivor count (dose: 100.0 mg/kg/injection, schedule: Q01DX001 (ip), vehicle: Klucel (hydroxypropylcellulose) (HPC)): 6 of 6

SMILES: O=C(O)C1[N-]CCNC1C(=O)O.[O]=[V][OH] (centres undefined)
- survivor count [2]: 3 of 6
- survivor count [3]: 0 of 6

SMILES: COc1cc(NCC(C)(O)CN(CC(C)C)C(C)C)c2ncccc2c1 (centres undefined)
- survivor count (dose: 100.0 mg/kg/injection, schedule: Q01DX005 (ip), vehicle: saline): 0 of 5
- survivor count (dose: 200.0 mg/kg/injection, schedule: Q01DX005 (ip), vehicle: saline): 0 of 5

SMILES: CC1(C)OC2C(COC(=O)c3ccc([N+](=O)[O-])cc3)OC(NC(=O)N(CCCl)N=O)C2O1 (centres undefined)
- T/C (dose: 0.78 mg/kg/injection, schedule: Q01DX009 (ip), vehicle: saline with Tween-80): 131 % of control
- T/C (dose: 6.25 mg/kg/injection, schedule: Q01DX009 (ip), vehicle: saline with Tween-80): 141 % of control [5 of 6 alive]
- survivor count [4]: 5 of 6

SMILES: CCOC(=O)N1CCN(C(=S)N/N=C(\C)c2ncccn2)CC1
- survivor count (dose: 25.0 mg/kg/injection, schedule: Q01DX005 (ip), vehicle: saline with Tween-80): 1 of 6
- survivor count (dose: 50.0 mg/kg/injection, schedule: Q01DX005 (ip), vehicle: saline with Tween-80): 0 of 6
- survivor count [1]: 0 of 6
- survivor count (dose: 200.0 mg/kg/injection, schedule: Q01DX005 (ip), vehicle: saline with Tween-80): 0 of 6

SMILES: CN(C)CCOc1cccc2c1C(=O)c1ccccc1C2=O
- survivor count (dose: 200.0 mg/kg/injection, schedule: Q01DX009 (ip), vehicle: water): 1 of 6

SMILES: O=NNc1nccs1
- survivor count (dose: 25.0 mg/kg/injection, schedule: Q01DX009 (ip), vehicle: water): 0 of 6

SMILES: O=c1c(Cl)cc(Cl)cn1S(=O)(=O)c1ccc([N+](=O)[O-])cc1
- T/C [4]: 128 % of control

SMILES: COC1C=C(Cl)C(=O)C(C)O1 (centres undefined)
- survivor count (dose: 100.0 mg/kg/injection, schedule: Q04DX003 (ip), vehicle: Klucel (hydroxypropylcellulose) (HPC)): 6 of 6
- survivor count (dose: 200.0 mg/kg/injection, schedule: Q04DX003 (ip), vehicle: Klucel (hydroxypropylcellulose) (HPC)): 6 of 6
- survivor count (dose: 400.0 mg/kg/injection, schedule: Q04DX003 (ip), vehicle: Klucel (hydroxypropylcellulose) (HPC)): 1 of 6

SMILES: C[n+]1c(/C=C2/SC=C(c3ccccc3)S2)ccc2ccccc21
- survivor count (dose: 3.12 mg/kg/injection, schedule: Q04DX002 (ip), vehicle: saline with Tween-80): 3 of 6
- survivor count (dose: 12.5 mg/kg/injection, schedule: Q04DX002 (ip), vehicle: saline with Tween-80): 0 of 6
- survivor count (dose: 25.0 mg/kg/injection, schedule: Q04DX002 (ip), vehicle: saline with Tween-80): 0 of 6
- survivor count (dose: 50.0 mg/kg/injection, schedule: Q04DX002 (ip), vehicle: saline with Tween-80): 0 of 6
